PubChem BioAssay AID1347075 (National Center for Advancing Translational Sciences (NCATS), 2019)
The whole screen tested about 400,000 compounds, of which about 5,500 (1.4%) were called active. The inconclusive results got no clear call from the source; some entries with a clear call stand among them for comparison. Calls follow the shape of the dose curve; as a rule, active = well fitted cell-killing curve with a large enough effect; inconclusive = small, poorly fitted or top-dose-only effect, or effect the other way; inactive = flat fitted curve, though single readings scatter. Potencies beside an inconclusive call are fits to weak or partial responses and may not hold up.
% is scaled to controls: 0 for no effect and ±100 for the full control effect; potency is read from the fitted curve at half-maximal effect.

Experiment: qHTS assay for MDR1-selective chemotherapeutics: Primary screen using the parental adenocarcinoma cell KB-3-1; also: nearly all actives have a fitted effect of over 60% in size
Details: KB-3-1 viability, CellTiter-Glo ATP luminescence, 72 h; activity change, negative = cytotoxic: at 46.1 µM (top of the series)
Summary of the method: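 Multi-concentration cytotoxicity screen in KB-3-1 cells grown in DMEM lacking phenol red with 10% FBS. After 72 h at 37 °C with compound, ATP-dependent luminescence was recorded.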
For `COc1ccc(NC(=S)N(CCCN2CCCCCC2)Cc2cccs2)cc1`, the Potency was “inactive”. For `COc1ccc(C(=O)NCCn2cc(SCc3cc(C)ccc3C)c3ccccc32)cc1`, the Potency was inconclusive: 23.1 µM [cytotoxic, single point]. With `CC(C)(C)OC(=O)NCCCC[C@H](NC(=O)c1nc[nH]c1C(=O)NCc1ccccc1)C(=O)OC(C)(C)C` the Potency was inconclusive: 29.1 µM [cytotoxic, single point]. In the case of `COc1cc(C(C)=O)ccc1OCCCN1CCC(Cc2ccccc2)CC1`, the Potency is reported as inconclusive: 23.1 µM [cytotoxic, partial curve, poor fit]. With `CCOc1ccccc1NC(=S)Nc1ncccc1C` the Potency was active: 18.4 µM. With `CC(Oc1ccccc1F)c1nnc(SCC(=O)Nc2ccc(N3CCOCC3)cc2)o1` (stereo not given) the Potency was “inactive”. With `N#CCC(=O)N/N=C/c1ccc(Cl)cc1` the Potency was inconclusive: 1.16 µM [cytotoxic, full curve, poor fit]. In the case of `N#CC1(C#N)COC23CCCCC2C1(C#N)C(=N)O3` (stereo not given), the Potency is reported as inconclusive: 23.1 µM [cytotoxic, single point]. For `COc1ccc2sc(/C=C/c3ccccc3O)[n+](C)c2c1`, the Potency was inconclusive: 29.1 µM [cytotoxic, single point]. For `O=C(CSc1nnc(Cc2ccccc2)o1)N1CCc2ccccc21`, the Potency was inconclusive: 0.0651 µM [rising, full curve]. In the case of `CCCCN(C=O)c1c(CC)nc2c(OCc3ccc(Cl)cc3)cccn12`, the Potency is reported as inconclusive: 29.1 µM [cytotoxic, single point]. In the case of `Cc1ccc([C@H]2C[C@@H](n3cc(-c4ccc(F)cc4)nn3)[C@H](O)CN2CC2CCCCC2)cc1`, the Potency is reported as inconclusive: 25.9 µM [cytotoxic, single point]. For `Cc1cc(C)n2c(Nc3ccccc3)c(-c3ccccc3)nc2n1`, the Potency was “inactive”. In the case of `CCN1C(=O)[C@H]2[C@@H](c3ccc(C)cc3)N3C(=O)N(c4cccc(Br)c4)C(=O)[C@@]3(CC(C)C)[C@H]2C1=O`, the Potency is reported as inconclusive: 29.1 µM [cytotoxic, single point]. For `COC(C(=O)C(O)C(C)O)C1Cc2cc3cc(OC4CC(OC5CC(O)C(O)C(C)O5)C(O)C(C)O4)c(C)c(O)c3c(O)c2C(=O)C1OC1CC(OC2CC(OC3CC(C)(O)C(O)C(C)O3)C(O)C(C)O2)C(O)C(C)O1` (stereo not given), the Potency was active: 0.0052 µM. With `CCn1c(=O)cc(OCC(=O)N2CCN(c3ccccc3OC)CC2)c2ccccc21` the Potency was inconclusive: 29.1 µM [cytotoxic, single point]. For `O=C(CCl)Nc1cccc(S(=O)(=O)NC2=NCCCCC2)c1`, the Potency was inconclusive: 29.1 µM [cytotoxic, single point]. For `CN(C)c1ccc(C(CNC(=O)c2ccccc2)c2c[nH]c3ccccc23)cc1` (stereo not given), the Potency was inconclusive: 29.1 µM [cytotoxic, single point]. With `Cc1ccc(-c2csc(N/N=C/c3ccco3)n2)c(C)c1` the Potency was inconclusive: 2.59 µM [cytotoxic, full curve]. In the case of `COc1ccc(Br)c(Cn2c(C)c(C(=O)N(C)Cc3ccc(F)cc3)sc2=O)c1`, the Potency is reported as inconclusive: 20.6 µM [cytotoxic, single point]. For `Cc1sc2ncnc(N3CCN(Cc4ccccc4)CC3)c2c1-c1ccccc1`, the Potency was inconclusive: 29.1 µM [cytotoxic, single point]. In the case of `COc1ccc(NC(=O)Cn2cccc2)cc1Cl`, the Potency is reported as inconclusive: 29.1 µM [cytotoxic, single point]. With `COc1ccc(CN2CCC(C(=O)N3CCN(c4ccccc4F)CC3)CC2)cc1OC` the activity change, negative = cytotoxic was inconclusive: -30.9% [cytotoxic]. In the case of `COc1cccc(NC(=O)C2CCN(c3nc4ccccc4nc3C(F)(F)F)CC2)c1`, the Potency is reported as “inactive”. In the case of `Cc1ccc(NC(=S)NNC(=S)Nc2ccc(C)cc2)cc1`, the Potency is reported as active: 3.66 µM. With `CCc1ccc(C2=NNC(=Nc3cccc(S(=O)(=O)N(C)C)c3)SC2)cc1` the Potency was inconclusive: 29.1 µM [cytotoxic, single point]. For `Cn1cccc1Cc1nnc(SCC(=O)N2CCN(c3ccccc3)CC2)n1-c1ccc(F)cc1`, the Potency was “inactive”. For `O=C(CCc1nc2ccccc2c(=O)[nH]1)Nc1ccccc1N1CCCCC1`, the Potency was “inactive”. With `COc1cc(CNC(C)c2ccccc2)cc(Br)c1OCc1ccc(F)cc1` (stereo not given) the Potency was inconclusive: 29.1 µM [cytotoxic, single point]. For `CC(C)(C)NC(=O)NC(=O)COC(=O)c1cc[n+]([O-])cc1`, the Potency was “inactive”. In the case of `CN(Cc1cn(Cc2cccc(C(F)(F)F)c2)nn1)C1CN(Cc2cn(Cc3cccc(C(F)(F)F)c3)nn2)S(=O)(=O)C1` (stereo not given), the Potency is reported as “inactive”. With `O=C(N/N=C/c1cc2c3c(c1O)CCCN3CCC2)c1ccccc1O` the Potency was active: 4.11 µM. For `CCCC(C)NC(=O)COc1ccc(Sc2ccc(OCC(=O)NC(C)CCC)cc2)cc1` (stereo not given), the Potency was inconclusive: 20.6 µM [cytotoxic, partial curve]. With `CCc1cccc(OCCCCN(CC)CC)c1` the Potency was “inactive”. For `COc1cccc(-c2cn3nc(C)c(C)nc3n2)c1`, the Potency was inconclusive: 29.1 µM [cytotoxic, single point]. For `CC(C)c1ccc(N(CC(=O)NCc2ccc(F)cc2)C(=O)c2csnn2)cc1`, the Potency was inconclusive: 18.4 µM [cytotoxic, single point]. In the case of `Cc1noc(/C=C/c2nn(C)cc2Cl)c1[N+](=O)[O-]`, the Potency is reported as inconclusive: 29.1 µM [cytotoxic, single point]. With `Cc1ccc(C)c(Cn2nnc3c(=O)[nH]c(C(=O)NCC4CCCO4)nc32)c1` (stereo not given) the Potency was inconclusive: 10.3 µM [cytotoxic, partial curve, poor fit]. In the case of `O=C(c1ccco1)N1CCN(C(=O)c2ccco2)C1=S`, the Potency is reported as active: 11.6 µM. In the case of `Nc1[nH]c(N=NC(=O)c2ccc(F)cc2)c2ccccc12`, the Potency is reported as inconclusive: 14.6 µM [rising, single point]. In the case of `COc1cc(C(=O)Nc2ccc([N+](=O)[O-])cn2)cc(OC)c1OC`, the Potency is reported as inconclusive: 18.4 µM [rising, single point]. In the case of `Cc1cc[n+](C(C)C(=O)c2ccc(-c3ccccc3)cc2)cc1` (stereo not given), the Potency is reported as inconclusive: 20.6 µM [cytotoxic, single point]. With `CC(C)(C)CN1CCN(Cc2nc(-c3ccc(F)cc3)cs2)CC1CCO` (stereo not given) the Potency was inconclusive: 5.17 µM [cytotoxic, partial curve]. With `COc1ccc(OC)c(/C=C/C(=O)N(C)CC(=O)Nc2ccc(C)cc2)c1` the Potency was inconclusive: 29.1 µM [rising, single point]. For `COc1ccc(-c2cnnn2-c2ccc(NC(=O)/C=C/c3ccc(OC)c(OC)c3)cc2)cc1`, the Potency was “inactive”. For `Cc1cc(NC(=O)CSc2nc3c(cc2C#N)CCCCC3)no1`, the Potency was active: 5.8 µM. In the case of `O=C(NC1CC1)c1cc2c(s1)-c1ccccc1OC2`, the Potency is reported as inconclusive: 20.6 µM [cytotoxic, partial curve, poor fit]. In the case of `CCN(CC)S(=O)(=O)c1cccc(C(=O)N[C@H](C(=O)Nc2nc3ccc(F)cc3s2)C(C)C)c1`, the Potency is reported as active: 14.6 µM. For `Cc1cc(NC(=O)COC(=O)c2ccccc2S(=O)(=O)N(C)c2ccccc2)no1`, the Potency was “inactive”. In the case of `Cc1nc(Nc2ccccc2)c2oc3ccc(Cl)cc3c2n1`, the Potency is reported as “inactive”. In the case of `CC(Sc1nnc(-c2ccncc2)n1C)C(=O)Nc1nccs1` (stereo not given), the Potency is reported as inconclusive: 18.4 µM [rising, partial curve, poor fit]. In the case of `O=C1C(Cl)=C(Oc2ccccc2)C(=O)c2ccccc21`, the Potency is reported as inconclusive: 29.1 µM [cytotoxic, single point]. For `Cc1[nH]n(-c2ccccc2)c(=O)c1C=Nc1ccc(S(N)(=O)=O)cc1`, the Potency was “inactive”. For `COc1cccc(/C=N/Nc2ccc(C(=O)O)cc2)c1O`, the Potency was active: 16.4 µM. In the case of `CCOCCCN1C(=O)c2[nH]nc(-c3ccccc3O)c2C1c1ccc(CC)cc1` (stereo not given), the Potency is reported as inconclusive: 23.1 µM [cytotoxic, single point]. In the case of `CCOC(=O)N1CCN(C(=O)c2ccc3c(=O)n(CCc4ccccc4)c(=S)[nH]c3c2)CC1`, the Potency is reported as “inactive”. In the case of `C=CCNC(=O)C(=O)N/N=C/c1ccco1`, the Potency is reported as “inactive”. With `Cc1ccccc1Nc1c(-c2ccc(Br)o2)nc2ccc(Cl)cn12` the Potency was “inactive”. For `C[C@H]1CN([C@@H](C)CO)C(=O)c2cc(-c3cccnc3)cnc2O[C@H]1CN(C)Cc1ccc(Oc2ccccc2)cc1`, the Potency was inconclusive: 29.1 µM [cytotoxic, single point]. For `COc1cc(C)ccc1OCCOc1ccccc1Cl`, the Potency was “inactive”. For `COc1ccc(N(CC(=O)Nc2cc(C)on2)S(=O)(=O)c2cc(C)ccc2C)cc1`, the Potency was inconclusive: 29.1 µM [cytotoxic, single point]. In the case of `CCOc1ccc(-c2nn(CC(=O)NC3CCCC3)c3c2cnc2ccc(C)cc23)cc1`, the Potency is reported as “inactive”. For `CC(=O)c1ccc(S(=O)(=O)N2CCN(CC(=O)Nc3ccccc3C(=O)NC3CC3)CC2)cc1`, the Potency was inconclusive: 4.11 µM [rising, partial curve, poor fit]. For `O=C(CC(SCCO)c1ccc(F)cc1)c1ccco1` (stereo not given), the Potency was “inactive”. For `COc1ccc(N(C)S(=O)(=O)c2cccc(C(=O)NCC3CCCCC3)c2)cc1`, the Potency was inconclusive: 23.1 µM [rising, single point]. For `CC1CCCC(C)N1C(=O)COc1ccc(F)cc1` (stereo not given), the Potency was inconclusive: 0.184 µM [cytotoxic, full curve]. With `COc1cc(OC)c(NC(=O)c2cc(C)nc3c2c(C)nn3-c2ccc(C)cc2)cc1Cl` the Potency was “inactive”. In the case of `CC(C)(C)c1ccc(C(=O)Nc2nnc(Cc3c[nH]c4ccccc34)s2)cc1`, the Potency is reported as inconclusive: 29.1 µM [cytotoxic, single point]. In the case of `CCN(CC)c1cc2c(cc1F)c(=O)c(S(=O)(=O)c1ccc(OC)cc1)cn2Cc1ccccc1`, the Potency is reported as “inactive”. For `CCOc1ccccc1NC(=O)C(OC(=O)c1ccc(O)cc1)c1ccccc1` (stereo not given), the Potency was inconclusive: 29.1 µM [cytotoxic, single point].
